These are yes or no findings as the source states them, for the method shown. In cells and extracts the contact can be indirect. Some results given as binding are weak or reduced against the parent protein; the word gives no strength. Where a sequence is shown, tags or fusion partners need not be part of it.
Target: T1, V5-tagged human transglutaminase 2 (TG2) (human) (UniProt P21980)
T1 sequence: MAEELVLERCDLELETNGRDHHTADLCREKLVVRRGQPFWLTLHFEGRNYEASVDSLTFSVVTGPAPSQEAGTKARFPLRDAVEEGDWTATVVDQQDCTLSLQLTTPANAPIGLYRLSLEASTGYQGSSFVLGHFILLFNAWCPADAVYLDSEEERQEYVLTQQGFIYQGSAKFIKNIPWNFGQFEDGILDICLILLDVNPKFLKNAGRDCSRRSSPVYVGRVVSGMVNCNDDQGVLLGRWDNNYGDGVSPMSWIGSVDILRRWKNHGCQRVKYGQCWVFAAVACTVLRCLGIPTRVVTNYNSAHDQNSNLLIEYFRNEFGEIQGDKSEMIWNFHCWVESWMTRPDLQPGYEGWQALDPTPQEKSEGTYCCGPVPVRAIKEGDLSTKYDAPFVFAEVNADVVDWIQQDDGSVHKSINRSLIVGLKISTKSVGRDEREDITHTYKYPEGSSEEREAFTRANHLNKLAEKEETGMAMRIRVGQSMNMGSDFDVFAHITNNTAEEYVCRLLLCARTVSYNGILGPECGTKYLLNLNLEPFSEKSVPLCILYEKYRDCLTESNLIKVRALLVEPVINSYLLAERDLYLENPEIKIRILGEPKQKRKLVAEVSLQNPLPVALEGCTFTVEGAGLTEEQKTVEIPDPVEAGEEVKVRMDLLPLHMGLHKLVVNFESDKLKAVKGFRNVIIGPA
Assay: co-IP; HEK 293TN co-transfected with V5-TG2 and FLAG-Zbtb7a, treated with 10 µM VA4 or DMSO vehicle for 48 h; 300 µg lysate precipitated with rabbit anti-V5, protein A/G magnetic agarose beads, 4 °C; blot for FLAG and V5; lysis buffer 150 mM NaCl, 50 mM Tris-HCl, 1 mM EDTA, 1 mM EGTA, 0.5% NP-40 in PBS

The chains behind the UniProt entries cited, without tags or fusion partners.
UniProt O95365: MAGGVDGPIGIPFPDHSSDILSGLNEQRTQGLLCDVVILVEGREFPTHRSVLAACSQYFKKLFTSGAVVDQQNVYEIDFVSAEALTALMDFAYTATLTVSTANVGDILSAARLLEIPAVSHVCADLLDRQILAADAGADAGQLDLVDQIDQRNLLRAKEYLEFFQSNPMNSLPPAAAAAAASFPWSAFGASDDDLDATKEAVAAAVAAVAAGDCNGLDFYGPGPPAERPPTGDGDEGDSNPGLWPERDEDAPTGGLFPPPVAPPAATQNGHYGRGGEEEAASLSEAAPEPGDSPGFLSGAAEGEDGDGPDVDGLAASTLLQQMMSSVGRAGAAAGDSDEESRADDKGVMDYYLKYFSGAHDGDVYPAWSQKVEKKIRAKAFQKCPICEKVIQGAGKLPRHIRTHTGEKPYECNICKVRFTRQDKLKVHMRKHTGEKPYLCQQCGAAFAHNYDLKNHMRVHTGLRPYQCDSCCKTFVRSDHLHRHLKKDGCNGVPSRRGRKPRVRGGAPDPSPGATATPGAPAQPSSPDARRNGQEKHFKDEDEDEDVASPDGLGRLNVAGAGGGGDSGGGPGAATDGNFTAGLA

## FLAG-tagged Zbtb7a (from UniProt O95365 1-584)
  binding: binds

— article PMC11673777
